In publication PMC3264566:
A negative result means that nothing was seen under these conditions. At least one verdict rests on a figure or table, not on a statement of the authors. For at least one entry, the source does not settle the construct or the ends of the probe. A weaker result is weaker than the reference pair of the same experiment.

By UniProt entry, the sequences of proteins in these tests, tags left out. Residues count along the entry.
UniProt P21866, 124-225: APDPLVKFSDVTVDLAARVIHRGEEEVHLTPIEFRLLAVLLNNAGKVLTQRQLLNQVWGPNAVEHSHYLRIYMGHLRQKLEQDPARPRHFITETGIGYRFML

Molecular target: KdpE DBD (KdpEDBD) (Escherichia coli str. K-12 substr. MG1655) (UniProt P21866)
Assay: EMSA
Conditions: EMSA: 10 mM Tris pH 8.0, 50 mM NaCl, 5% glycerol, 0.1% Triton X-100, 10 mM DTT, 1 mM EDTA, 1 uM DNA, 6% gel in TBE, temperature not stated, recombinant protein, residues 124-225, protein details: N-terminal His-tag removed with TEV
[1] = 1:8 DNA:protein, binds 1:1 in AUC

Does “CATTTTCGTACTTTTTTTACACCCCGCCCG (double strand) [kdpFABCBS-2]” bind (1:8 DNA:protein)?
Result: no binding

Does “CATTTTTATACTTTCCTTACACCCCGCCCG (double strand) [kdpFABCBS-6]” bind (1:8 DNA:protein, changes first T of S2)?
Result: no binding

Does “CATTTTCATACTTTTTTTACACCCCGCCCG (double strand) [kdpFABCBS 7TC]” bind?
Result: binds more weakly

Does “CATTTTTATACTTTTTTTACACC (double strand) [kdpFABCBS 3'del7]” bind (contains minimal 21 bp)?
Result: binds

Does “CATTTTTGTACTTTTTTTACACCCCGCCCG (double strand) [kdpFABCBS 8AG]” bind?
Result: binds more weakly

Does “CACTTTTATACTTTTTTTACACCCCGCCCG (double strand) [kdpFABCBS 3TC]” bind?
Result: binds more weakly

Does “CATTTTTATACTTTTTTTACACCCCGC (double strand) [kdpFABCBS 3'del3]” bind (contains minimal 21 bp)?
Result: binds

Does “CATTTTTATACTTTTTTCACACCCCGCCCG (double strand) [kdpFABCBS 18TC]” bind?
Result: binds more weakly

Does “CATCTTTATACTTTTTTTACACCCCGCCCG (double strand) [kdpFABCBS 4TC]” bind?
Result: binds more weakly

Does “CATTTTTATACTTTTTTTACAC (double strand) [kdpFABCBS 3'del8]” bind (contains minimal 21 bp)?
Result: binds

Does “CATTCCTATACTTTTTTTACACCCCGCCCG (double strand) [kdpFABCBS-1]” bind [1]?
Result: no binding

Does “CATTTTTATACTTTTTTTGCACCCCGCCCG (double strand) [kdpFABCBS 19AG]” bind?
Result: binds more weakly

Does “CATTTTTATACTTTTTTTACACCC (double strand) [kdpFABCBS 3'del6]” bind (contains minimal 21 bp)?
Result: binds

Does “CATTTTTATACTTTTTTTGTACCCCGCCCG (double strand) [kdpFABCBS-8]” bind (1:8 DNA:protein, changes A4 of S2)?
Result: no binding

Does “CATTTTTATACTTTTCTTACACCCCGCCCG (double strand) [kdpFABCBS 16TC]” bind?
Result: binds more weakly

Does “CATTTTTATACTTCTTTTACACCCCGCCCG (double strand) [kdpFABCBS 14TC]” bind?
Result: binds more weakly

Does “CATTTCTATACTTTTTTTACACCCCGCCCG (double strand) [kdpFABCBS 6TC]” bind?
Result: binds more weakly

Does “ATTTTTATACTTTTTTTACACCCCGCCCG (double strand) [kdpFABCBS 5'del1]” bind (contains minimal 21 bp)?
Result: binds

Does “CATTTTTATACTTTTTCCACACCCCGCCCG (double strand) [kdpFABCBS-7]” bind [1]?
Result: no binding

Does “CATTTTTATACTTTTTCTACACCCCGCCCG (double strand) [kdpFABCBS 17TC]” bind?
Result: binds more weakly

Does “CATTTTTATACTCTTTTTACACCCCGCCCG (double strand) [kdpFABCBS 13TC]” bind?
Result: binds more weakly

Does “CATTTTTATACTTTCTTTACACCCCGCCCG (double strand) [kdpFABCBS 15TC]” bind?
Result: binds more weakly
